{"sequences": {"note": "Chains of the proteins cited; added tags and fusions are not shown. Lines headed by an entry give the natural chain unless they say otherwise; changes in a name come on top.", "UniProt Q13557, whole entry": "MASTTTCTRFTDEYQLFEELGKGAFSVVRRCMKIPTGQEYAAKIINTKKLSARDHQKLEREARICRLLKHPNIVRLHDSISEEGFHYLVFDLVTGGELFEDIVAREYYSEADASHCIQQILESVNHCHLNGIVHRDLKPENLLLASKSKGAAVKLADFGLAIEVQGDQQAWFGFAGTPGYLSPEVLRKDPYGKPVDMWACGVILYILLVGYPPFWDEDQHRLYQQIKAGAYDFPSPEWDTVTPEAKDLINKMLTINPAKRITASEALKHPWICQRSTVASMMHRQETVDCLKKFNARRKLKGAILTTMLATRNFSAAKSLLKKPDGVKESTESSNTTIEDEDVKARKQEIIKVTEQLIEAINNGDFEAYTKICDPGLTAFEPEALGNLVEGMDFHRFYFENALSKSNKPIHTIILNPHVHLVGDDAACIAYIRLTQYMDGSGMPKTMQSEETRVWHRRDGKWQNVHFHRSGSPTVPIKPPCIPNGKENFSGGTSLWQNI", "UniProt Q5S007, whole entry G2019S": "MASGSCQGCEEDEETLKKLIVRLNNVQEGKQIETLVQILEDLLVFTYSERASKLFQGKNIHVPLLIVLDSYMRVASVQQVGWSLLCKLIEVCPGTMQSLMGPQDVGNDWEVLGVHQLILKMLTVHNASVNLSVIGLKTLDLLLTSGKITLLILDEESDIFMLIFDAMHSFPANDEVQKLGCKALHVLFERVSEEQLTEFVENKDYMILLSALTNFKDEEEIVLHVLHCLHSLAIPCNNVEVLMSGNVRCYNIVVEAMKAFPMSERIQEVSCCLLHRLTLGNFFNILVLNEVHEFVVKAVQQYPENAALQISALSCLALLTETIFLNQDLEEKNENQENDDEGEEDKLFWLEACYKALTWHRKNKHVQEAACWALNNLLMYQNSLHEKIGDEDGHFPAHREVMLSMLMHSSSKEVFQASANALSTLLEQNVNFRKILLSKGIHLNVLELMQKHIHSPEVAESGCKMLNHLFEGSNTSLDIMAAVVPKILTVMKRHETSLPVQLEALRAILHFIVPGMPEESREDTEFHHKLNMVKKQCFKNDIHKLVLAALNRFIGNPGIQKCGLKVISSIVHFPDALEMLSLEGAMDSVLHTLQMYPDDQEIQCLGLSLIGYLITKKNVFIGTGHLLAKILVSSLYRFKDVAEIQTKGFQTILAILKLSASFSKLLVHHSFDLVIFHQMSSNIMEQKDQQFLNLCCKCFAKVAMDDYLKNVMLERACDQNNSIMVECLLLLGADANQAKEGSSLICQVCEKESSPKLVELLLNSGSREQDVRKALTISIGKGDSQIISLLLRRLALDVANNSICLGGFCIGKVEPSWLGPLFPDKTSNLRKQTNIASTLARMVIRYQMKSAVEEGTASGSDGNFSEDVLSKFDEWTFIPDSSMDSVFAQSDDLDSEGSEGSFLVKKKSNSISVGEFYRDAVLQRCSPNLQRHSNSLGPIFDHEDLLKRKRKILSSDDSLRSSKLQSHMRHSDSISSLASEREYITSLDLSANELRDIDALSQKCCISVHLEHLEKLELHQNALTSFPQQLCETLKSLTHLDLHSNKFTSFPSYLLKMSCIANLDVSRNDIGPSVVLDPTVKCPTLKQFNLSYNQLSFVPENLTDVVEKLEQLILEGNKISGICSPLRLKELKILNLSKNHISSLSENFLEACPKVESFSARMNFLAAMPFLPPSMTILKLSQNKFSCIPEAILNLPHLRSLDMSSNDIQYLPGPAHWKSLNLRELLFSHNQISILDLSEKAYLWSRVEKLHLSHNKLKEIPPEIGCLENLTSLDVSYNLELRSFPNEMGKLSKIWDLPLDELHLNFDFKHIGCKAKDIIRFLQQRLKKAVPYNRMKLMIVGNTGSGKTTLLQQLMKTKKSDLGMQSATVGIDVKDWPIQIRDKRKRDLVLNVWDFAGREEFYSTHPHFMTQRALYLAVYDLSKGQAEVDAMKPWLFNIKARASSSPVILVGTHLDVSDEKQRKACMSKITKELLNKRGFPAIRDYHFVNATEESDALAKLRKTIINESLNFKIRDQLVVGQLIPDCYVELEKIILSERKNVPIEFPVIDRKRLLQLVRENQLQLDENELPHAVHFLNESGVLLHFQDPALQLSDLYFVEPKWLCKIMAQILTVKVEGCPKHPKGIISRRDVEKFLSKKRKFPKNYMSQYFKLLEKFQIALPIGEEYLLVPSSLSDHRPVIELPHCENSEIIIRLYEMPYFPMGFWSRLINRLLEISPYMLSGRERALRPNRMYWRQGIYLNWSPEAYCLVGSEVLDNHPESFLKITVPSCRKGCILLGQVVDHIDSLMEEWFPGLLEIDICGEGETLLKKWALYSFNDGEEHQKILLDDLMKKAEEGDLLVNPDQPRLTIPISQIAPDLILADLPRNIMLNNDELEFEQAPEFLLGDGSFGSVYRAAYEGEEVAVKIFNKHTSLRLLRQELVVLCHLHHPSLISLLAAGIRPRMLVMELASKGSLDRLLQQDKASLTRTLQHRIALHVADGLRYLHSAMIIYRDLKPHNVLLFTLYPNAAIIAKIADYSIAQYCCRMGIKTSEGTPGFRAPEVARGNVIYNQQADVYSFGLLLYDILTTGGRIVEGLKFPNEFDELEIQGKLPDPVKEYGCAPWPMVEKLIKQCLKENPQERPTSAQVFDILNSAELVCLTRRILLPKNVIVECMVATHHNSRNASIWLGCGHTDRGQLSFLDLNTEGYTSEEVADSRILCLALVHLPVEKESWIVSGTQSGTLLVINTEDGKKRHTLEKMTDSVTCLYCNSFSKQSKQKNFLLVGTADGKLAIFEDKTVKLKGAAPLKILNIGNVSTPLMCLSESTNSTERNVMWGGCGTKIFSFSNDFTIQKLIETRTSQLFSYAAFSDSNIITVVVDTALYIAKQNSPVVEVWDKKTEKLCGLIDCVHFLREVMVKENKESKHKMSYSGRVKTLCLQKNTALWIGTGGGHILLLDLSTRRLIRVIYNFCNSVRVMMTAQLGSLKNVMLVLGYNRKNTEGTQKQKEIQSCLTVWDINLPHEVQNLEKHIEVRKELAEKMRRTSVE", "UniProt P45983": "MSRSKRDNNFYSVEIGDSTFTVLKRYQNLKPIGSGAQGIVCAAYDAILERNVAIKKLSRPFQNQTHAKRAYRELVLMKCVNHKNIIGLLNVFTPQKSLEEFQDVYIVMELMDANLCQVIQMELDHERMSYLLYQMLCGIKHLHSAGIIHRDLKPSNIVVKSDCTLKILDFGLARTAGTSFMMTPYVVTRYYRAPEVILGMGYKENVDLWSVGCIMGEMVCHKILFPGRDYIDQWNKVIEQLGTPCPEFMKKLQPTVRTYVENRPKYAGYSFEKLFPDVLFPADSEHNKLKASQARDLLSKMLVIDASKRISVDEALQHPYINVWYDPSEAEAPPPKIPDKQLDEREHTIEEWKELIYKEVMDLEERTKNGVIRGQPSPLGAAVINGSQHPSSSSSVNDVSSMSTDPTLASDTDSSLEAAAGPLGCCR", "UniProt Q13177, whole entry": "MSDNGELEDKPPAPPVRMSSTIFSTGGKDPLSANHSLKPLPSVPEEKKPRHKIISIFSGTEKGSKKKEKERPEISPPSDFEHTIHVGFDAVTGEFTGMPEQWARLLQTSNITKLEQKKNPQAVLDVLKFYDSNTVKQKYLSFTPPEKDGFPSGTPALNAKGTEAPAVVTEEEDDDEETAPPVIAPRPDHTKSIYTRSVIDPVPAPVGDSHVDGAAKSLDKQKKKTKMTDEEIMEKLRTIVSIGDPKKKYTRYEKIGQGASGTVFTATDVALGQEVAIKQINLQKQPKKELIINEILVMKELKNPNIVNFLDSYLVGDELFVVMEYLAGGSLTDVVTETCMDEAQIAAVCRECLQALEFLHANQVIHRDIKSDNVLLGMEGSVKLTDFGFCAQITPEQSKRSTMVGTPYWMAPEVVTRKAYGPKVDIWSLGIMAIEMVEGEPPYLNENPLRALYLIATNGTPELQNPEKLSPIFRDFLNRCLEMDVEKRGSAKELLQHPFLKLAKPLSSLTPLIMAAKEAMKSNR", "UniProt Q9NQU5": "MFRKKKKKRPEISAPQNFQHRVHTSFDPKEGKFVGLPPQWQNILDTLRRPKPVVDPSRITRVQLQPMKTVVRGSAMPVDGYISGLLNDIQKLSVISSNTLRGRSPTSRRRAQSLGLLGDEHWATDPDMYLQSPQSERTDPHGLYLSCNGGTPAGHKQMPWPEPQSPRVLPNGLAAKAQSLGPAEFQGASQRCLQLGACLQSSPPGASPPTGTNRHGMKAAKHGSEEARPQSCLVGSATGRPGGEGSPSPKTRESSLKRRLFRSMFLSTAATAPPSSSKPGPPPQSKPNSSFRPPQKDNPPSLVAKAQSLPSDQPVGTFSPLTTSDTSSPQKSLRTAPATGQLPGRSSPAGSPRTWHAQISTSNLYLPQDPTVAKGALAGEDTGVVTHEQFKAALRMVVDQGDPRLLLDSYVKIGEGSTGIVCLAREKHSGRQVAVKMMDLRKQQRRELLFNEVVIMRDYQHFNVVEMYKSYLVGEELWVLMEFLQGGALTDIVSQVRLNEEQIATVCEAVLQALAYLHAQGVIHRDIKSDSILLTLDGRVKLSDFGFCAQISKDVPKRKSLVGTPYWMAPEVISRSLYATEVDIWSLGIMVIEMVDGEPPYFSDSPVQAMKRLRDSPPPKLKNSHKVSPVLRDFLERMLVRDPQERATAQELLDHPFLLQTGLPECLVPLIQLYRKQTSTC", "UniProt Q02156": "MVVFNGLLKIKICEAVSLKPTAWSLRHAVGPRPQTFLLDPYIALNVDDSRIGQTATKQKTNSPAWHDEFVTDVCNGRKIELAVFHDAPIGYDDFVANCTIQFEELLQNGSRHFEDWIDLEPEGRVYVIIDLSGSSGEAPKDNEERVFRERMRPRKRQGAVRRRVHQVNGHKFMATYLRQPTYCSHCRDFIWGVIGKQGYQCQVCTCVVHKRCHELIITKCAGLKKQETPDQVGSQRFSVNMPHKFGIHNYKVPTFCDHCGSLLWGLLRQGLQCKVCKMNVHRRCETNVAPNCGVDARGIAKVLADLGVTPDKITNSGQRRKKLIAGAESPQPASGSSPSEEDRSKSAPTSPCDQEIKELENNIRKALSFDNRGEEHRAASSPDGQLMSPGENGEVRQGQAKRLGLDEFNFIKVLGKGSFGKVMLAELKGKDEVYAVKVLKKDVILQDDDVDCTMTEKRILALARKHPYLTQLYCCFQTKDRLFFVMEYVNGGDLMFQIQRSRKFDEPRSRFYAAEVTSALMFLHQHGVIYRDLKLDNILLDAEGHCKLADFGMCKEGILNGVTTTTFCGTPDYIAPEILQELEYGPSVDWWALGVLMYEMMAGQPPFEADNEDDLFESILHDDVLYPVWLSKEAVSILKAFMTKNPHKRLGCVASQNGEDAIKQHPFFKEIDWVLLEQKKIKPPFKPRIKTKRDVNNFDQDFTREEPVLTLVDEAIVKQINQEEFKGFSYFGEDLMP", "UniProt O14730": "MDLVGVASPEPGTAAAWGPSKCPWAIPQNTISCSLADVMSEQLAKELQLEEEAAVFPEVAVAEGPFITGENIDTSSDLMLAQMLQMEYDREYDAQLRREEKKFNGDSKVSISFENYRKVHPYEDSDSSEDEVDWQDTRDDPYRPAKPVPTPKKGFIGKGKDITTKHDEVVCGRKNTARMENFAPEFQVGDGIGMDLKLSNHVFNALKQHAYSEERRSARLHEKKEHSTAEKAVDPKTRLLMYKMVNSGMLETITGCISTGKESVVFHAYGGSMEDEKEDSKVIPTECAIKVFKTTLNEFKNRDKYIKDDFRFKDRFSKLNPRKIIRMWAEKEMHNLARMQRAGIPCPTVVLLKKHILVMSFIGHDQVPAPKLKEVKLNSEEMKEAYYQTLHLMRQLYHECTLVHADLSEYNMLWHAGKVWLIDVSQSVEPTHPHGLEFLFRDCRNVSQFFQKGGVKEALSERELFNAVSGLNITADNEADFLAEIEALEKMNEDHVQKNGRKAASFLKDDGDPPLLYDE", "UniProt O00506, whole entry, looked up": "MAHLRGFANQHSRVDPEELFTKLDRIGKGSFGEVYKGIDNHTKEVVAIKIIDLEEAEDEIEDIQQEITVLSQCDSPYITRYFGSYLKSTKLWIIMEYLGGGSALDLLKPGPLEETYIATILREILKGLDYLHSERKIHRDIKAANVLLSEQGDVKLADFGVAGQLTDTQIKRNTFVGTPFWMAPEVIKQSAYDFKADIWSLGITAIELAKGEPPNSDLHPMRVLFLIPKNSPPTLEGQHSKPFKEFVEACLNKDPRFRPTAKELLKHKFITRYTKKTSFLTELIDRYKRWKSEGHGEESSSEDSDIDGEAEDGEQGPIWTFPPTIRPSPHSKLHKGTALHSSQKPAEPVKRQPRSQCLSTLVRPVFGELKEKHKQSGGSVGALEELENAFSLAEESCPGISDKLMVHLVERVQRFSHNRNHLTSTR"}, "source": "ChEMBL document CHEMBL5465560", "about": "“Selectivity Literature for EUbOPEN Chemogenomic Library” (2024)", "settings_in_all_cases": "at 1 µM", "key": {"[1]": {"system": "Tyrosine-protein kinase ABL1 (Homo sapiens), P00519 [E255K]", "test": "(§1) Selectivity interaction (KinomeScan (DiscoverX)) EUB0001581a ABL1"}, "[2]": {"system": "Tyrosine-protein kinase ABL1 (Homo sapiens), P00519 [F317I]", "test": "as §1"}, "[3]": {"system": "Tyrosine-protein kinase ABL1 (Homo sapiens), P00519 [F317L]", "test": "as §1"}, "[4]": {"system": "Tyrosine-protein kinase ABL1 (Homo sapiens), P00519 [H396P]", "test": "as §1"}, "[5]": {"system": "Tyrosine-protein kinase ABL1 (Homo sapiens), P00519 [M351T]", "test": "as §1"}, "[6]": {"system": "Tyrosine-protein kinase ABL1 (Homo sapiens), P00519 [Q252H]", "test": "as §1"}, "[7]": {"system": "Tyrosine-protein kinase ABL1 (Homo sapiens), P00519 [T315I]", "test": "as §1"}, "[8]": {"system": "Tyrosine-protein kinase ABL1 (Homo sapiens), P00519 [Y253F]", "test": "as §1"}, "[9]": {"target": "Tyrosine-protein kinase ABL1 (Homo sapiens, UniProt P00519)", "test": "as §1"}, "[10]": {"target": "Activin receptor type-2A (Homo sapiens) (UniProt P27037)", "test": "Selectivity interaction (KinomeScan (DiscoverX)) EUB0001581a ACVR2A"}, "[11]": {"target": "Calcium/calmodulin-dependent protein kinase type II subunit delta (Homo sapiens) (UniProt Q13557)", "test": "Selectivity interaction (KinomeScan (DiscoverX)) EUB0001581a CAMK2D"}, "[12]": {"target": "Cyclin-dependent kinase 13 (Homo sapiens, UniProt Q14004)", "test": "Selectivity interaction (KinomeScan (DiscoverX)) EUB0001581a CDK13"}, "[13]": {"target": "Cyclin-dependent kinase-like 3 (Homo sapiens) (UniProt Q8IVW4)", "test": "Selectivity interaction (KinomeScan (DiscoverX)) EUB0001581a CDKL3"}, "[14]": {"target": "Inhibitor of nuclear factor kappa-B kinase subunit alpha (Homo sapiens) (UniProt O15111)", "test": "Selectivity interaction (KinomeScan (DiscoverX)) EUB0001581a CHUK"}, "[15]": {"target": "Dual specificity protein kinase CLK1 (Homo sapiens, UniProt P49759)", "test": "Selectivity interaction (KinomeScan (DiscoverX)) EUB0001581a CLK1"}, "[16]": {"system": "Receptor-type tyrosine-protein kinase FLT3 (Homo sapiens), P36888 [D835Y]", "test": "(§2) Selectivity interaction (KinomeScan (DiscoverX)) EUB0001581a FLT3"}, "[17]": {"system": "Receptor-type tyrosine-protein kinase FLT3 (Homo sapiens), P36888 [K663Q]", "test": "as §2"}, "[18]": {"system": "Receptor-type tyrosine-protein kinase FLT3 (Homo sapiens), P36888 [N841I]", "test": "as §2"}, "[19]": {"system": "Receptor-type tyrosine-protein kinase FLT3 (Homo sapiens), P36888 [R834Q]", "test": "as §2"}, "[20]": {"system": "Receptor-type tyrosine-protein kinase FLT3 (Homo sapiens), P36888 [UNDEFINED MUTATION]", "test": "as §2"}, "[21]": {"target": "Tyrosine-protein kinase Fyn (Homo sapiens) (UniProt P06241)", "test": "Selectivity interaction (KinomeScan (DiscoverX)) EUB0001581a FYN"}, "[22]": {"target": "Serine/threonine-protein kinase LATS2 (Homo sapiens) (UniProt Q9NRM7)", "test": "Selectivity interaction (KinomeScan (DiscoverX)) EUB0001581a LATS2"}, "[23]": {"system": "Leucine-rich repeat serine/threonine-protein kinase 2 (Homo sapiens), Q5S007 [G2019S]", "test": "(§3) Selectivity interaction (KinomeScan (DiscoverX)) EUB0001581a LRRK2"}, "[24]": {"target": "Leucine-rich repeat serine/threonine-protein kinase 2 (Homo sapiens, UniProt Q5S007)", "test": "as §3"}, "[25]": {"target": "Mitogen-activated protein kinase kinase kinase 2 (Homo sapiens) (UniProt Q9Y2U5)", "test": "Selectivity interaction (KinomeScan (DiscoverX)) EUB0001581a MAP3K2"}, "[26]": {"target": "Mitogen-activated protein kinase 15 (Homo sapiens) (UniProt Q8TD08)", "test": "Selectivity interaction (KinomeScan (DiscoverX)) EUB0001581a MAPK15"}, "[27]": {"target": "Mitogen-activated protein kinase 8 (Homo sapiens, UniProt P45983)", "test": "Selectivity interaction (KinomeScan (DiscoverX)) EUB0001581a MAPK8"}, "[28]": {"target": "Serine/threonine-protein kinase MARK1 (Homo sapiens) (UniProt Q9P0L2)", "test": "Selectivity interaction (KinomeScan (DiscoverX)) EUB0001581a MARK1"}, "Misshapen-like kinase 1": {"target": "Misshapen-like kinase 1 (Homo sapiens, UniProt Q8N4C8)", "test": "Selectivity interaction (KinomeScan (DiscoverX)) EUB0001581a MINK1"}, "[29]": {"target": "NT-3 growth factor receptor (Homo sapiens, UniProt Q16288)", "test": "Selectivity interaction (KinomeScan (DiscoverX)) EUB0001581a NTRK3"}, "[30]": {"target": "Serine/threonine-protein kinase PAK 2 (Homo sapiens) (UniProt Q13177)", "test": "Selectivity interaction (KinomeScan (DiscoverX)) EUB0001581a PAK2"}, "[31]": {"target": "Serine/threonine-protein kinase PAK 6 (Homo sapiens) (UniProt Q9NQU5)", "test": "Selectivity interaction (KinomeScan (DiscoverX)) EUB0001581a PAK6"}, "[32]": {"target": "Serine/threonine-protein kinase pim-3 (Homo sapiens) (UniProt Q86V86)", "test": "Selectivity interaction (KinomeScan (DiscoverX)) EUB0001581a PIM3"}, "[33]": {"target": "Phosphatidylinositol 5-phosphate 4-kinase type-2 gamma (Homo sapiens) (UniProt Q8TBX8)", "test": "Selectivity interaction (KinomeScan (DiscoverX)) EUB0001581a PIP4K2C"}, "[34]": {"target": "Serine/threonine-protein kinase PLK3 (Homo sapiens, UniProt Q9H4B4)", "test": "Selectivity interaction (KinomeScan (DiscoverX)) EUB0001581a PLK3"}, "[35]": {"target": "Protein kinase C epsilon type (Homo sapiens) (UniProt Q02156)", "test": "Selectivity interaction (KinomeScan (DiscoverX)) EUB0001581a PRKCE"}, "[36]": {"target": "Serine/threonine-protein kinase RIO3 (Homo sapiens) (UniProt O14730)", "test": "Selectivity interaction (KinomeScan (DiscoverX)) EUB0001581a RIOK3"}, "[37]": {"target": "Ribosomal protein S6 kinase alpha-4 (Homo sapiens) (UniProt O75676)", "test": "Selectivity interaction (KinomeScan (DiscoverX)) EUB0001581a RPS6KA4"}, "[38]": {"target": "Serine/threonine-protein kinase 25 (Homo sapiens) (UniProt O00506)", "test": "Selectivity interaction (KinomeScan (DiscoverX)) EUB0001581a STK25"}, "[39]": {"target": "Serine/threonine-protein kinase 3 (Homo sapiens) (UniProt Q13188)", "test": "Selectivity interaction (KinomeScan (DiscoverX)) EUB0001581a STK3"}, "[40]": {"target": "Tyrosine-protein kinase SYK (Homo sapiens, UniProt P43405)", "test": "Selectivity interaction (KinomeScan (DiscoverX)) EUB0001581a SYK"}, "[41]": {"target": "Tyrosine-protein kinase Tec (Homo sapiens) (UniProt P42680)", "test": "Selectivity interaction (KinomeScan (DiscoverX)) EUB0001581a TEC"}, "[42]": {"target": "Tyrosine-protein kinase ZAP-70 (Homo sapiens) (UniProt P43403)", "test": "Selectivity interaction (KinomeScan (DiscoverX)) EUB0001581a ZAP70"}}}
{"smiles": "C[C@@H]1C[C@H](N)C[C@H](c2ccncc2NC(=O)c2ccc(F)c(-c3c(F)cccc3F)n2)C1", "values": [{"measurement": "% of control", "setting": "[1]", "result": 88, "unit": "%"}, {"measurement": "% of control", "setting": "[2]", "result": 100, "unit": "%"}, {"measurement": "% of control", "setting": "[3]", "result": 100, "unit": "%"}, {"measurement": "% of control", "setting": "[4]", "result": 100, "unit": "%"}, {"measurement": "% of control", "setting": "[5]", "result": 100, "unit": "%"}, {"measurement": "% of control", "setting": "[6]", "result": 91, "unit": "%"}, {"measurement": "% of control", "setting": "[7]", "result": 100, "unit": "%"}, {"measurement": "% of control", "setting": "[8]", "result": 91, "unit": "%"}, {"measurement": "% of control", "setting": "[9]", "result": 100, "unit": "%"}, {"measurement": "% of control", "setting": "[10]", "result": 100, "unit": "%"}, {"measurement": "% of control", "setting": "[11]", "result": 100, "unit": "%"}, {"measurement": "% of control", "setting": "[12]", "result": 100, "unit": "%"}, {"measurement": "% of control", "setting": "[13]", "result": 100, "unit": "%"}, {"measurement": "% of control", "setting": "[14]", "result": 69, "unit": "%"}, {"measurement": "% of control", "setting": "[15]", "result": 60, "unit": "%"}, {"measurement": "% of control", "setting": "[16]", "result": 38, "unit": "%"}, {"measurement": "% of control", "setting": "[17]", "result": 82, "unit": "%"}, {"measurement": "% of control", "setting": "[18]", "result": 80, "unit": "%"}, {"measurement": "% of control", "setting": "[19]", "result": 100, "unit": "%"}, {"measurement": "% of control", "setting": "[20]", "result": 79, "unit": "%"}, {"measurement": "% of control", "setting": "[21]", "result": 100, "unit": "%"}, {"measurement": "% of control", "setting": "[22]", "result": 100, "unit": "%"}, {"measurement": "% of control", "setting": "[23]", "result": 79, "unit": "%"}, {"measurement": "% of control", "setting": "[24]", "result": 100, "unit": "%"}, {"measurement": "% of control", "setting": "[25]", "result": 88, "unit": "%"}, {"measurement": "% of control", "setting": "[26]", "result": 2.5, "unit": "%"}, {"measurement": "% of control", "setting": "[27]", "result": 100, "unit": "%"}, {"measurement": "% of control", "setting": "[28]", "result": 81, "unit": "%"}, {"measurement": "% of control", "setting": "Misshapen-like kinase 1", "result": 68, "unit": "%"}, {"measurement": "% of control", "setting": "[29]", "result": 91, "unit": "%"}, {"measurement": "% of control", "setting": "[30]", "result": 64, "unit": "%"}, {"measurement": "% of control", "setting": "[31]", "result": 97, "unit": "%"}, {"measurement": "% of control", "setting": "[32]", "result": 0.45, "unit": "%"}, {"measurement": "% of control", "setting": "[33]", "result": 100, "unit": "%"}, {"measurement": "% of control", "setting": "[34]", "result": 76, "unit": "%"}, {"measurement": "% of control", "setting": "[35]", "result": 72, "unit": "%"}, {"measurement": "% of control", "setting": "[36]", "result": 100, "unit": "%"}, {"measurement": "% of control", "setting": "[37]", "result": 90, "unit": "%"}, {"measurement": "% of control", "setting": "[38]", "result": 100, "unit": "%"}, {"measurement": "% of control", "setting": "[39]", "result": 78, "unit": "%"}, {"measurement": "% of control", "setting": "[40]", "result": 100, "unit": "%"}, {"measurement": "% of control", "setting": "[41]", "result": 100, "unit": "%"}, {"measurement": "% of control", "setting": "[42]", "result": 88, "unit": "%"}]}
